In US20230033021A1, “TREATMENT OF A DISEASE OF THE GASTROINTESTINAL TRACT WITH AN INTEGRIN INHIBITOR” (Progenity, Inc., priority 2018, published 2023):

Tested on: IL-6
Settings: all IC treated groups and high dose PO group (45 mg/kg)

C[C@@H]1CCN(C(=O)CC#N)C[C@@H]1N(C)c1ncnc2[nH]ccc12.O=C(O)CC(O)(CC(=O)O)C(=O)O [tofacitinib citrate]
inhibition of IL-6 expression in colon tissue: sustained through 24 h
